Results are given in words; binding and its absence hold for the method and conditions named. Some results given as binding are weak or reduced against the parent protein; the word gives no strength.
Molecular target: biotinylated FGF2 (Biot-FGF2) (UniProt P09038)
Assay: pull-down; 73 pmol of SBP- or biotin-labelled FGF with an equal molar amount of recombinant nucleolin-C, Streptavidin-coated Dynabeads; blot with anti-nucleolin; for Biot-FGF1 with or without heparin; both purified

Sequences of proteins named here, by UniProt entry; tags and fusion partners are left off. Residues count along the entry.
UniProt P09038, residues 134-287: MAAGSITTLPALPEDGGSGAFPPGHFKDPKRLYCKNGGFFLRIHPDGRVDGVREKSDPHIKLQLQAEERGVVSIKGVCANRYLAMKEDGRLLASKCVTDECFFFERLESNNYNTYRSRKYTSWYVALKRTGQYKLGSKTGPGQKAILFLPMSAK
UniProt P19338, residues 284-707: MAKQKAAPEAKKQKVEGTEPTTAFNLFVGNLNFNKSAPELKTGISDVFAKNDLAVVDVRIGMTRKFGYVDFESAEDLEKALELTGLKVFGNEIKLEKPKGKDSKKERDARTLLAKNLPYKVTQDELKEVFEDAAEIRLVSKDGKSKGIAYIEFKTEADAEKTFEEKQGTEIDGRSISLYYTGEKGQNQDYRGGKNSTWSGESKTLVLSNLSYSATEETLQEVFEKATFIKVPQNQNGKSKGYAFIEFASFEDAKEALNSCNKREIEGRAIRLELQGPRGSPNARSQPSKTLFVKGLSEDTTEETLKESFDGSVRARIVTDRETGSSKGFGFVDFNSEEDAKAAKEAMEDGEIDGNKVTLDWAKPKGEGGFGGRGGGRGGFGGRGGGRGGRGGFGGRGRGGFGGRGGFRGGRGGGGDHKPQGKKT

binding: binds
Substance: recombinant C-terminal fragment (residues 284-707) of nucleolin (nucleolin-C) (from UniProt P19338 284-707) (domain or fragment)

— publication PMC3942467
